# According to PMC5122344:
# The chains behind the UniProt entries cited, without tags or fusion partners. Where a name states a change or a piece, a line headed by the entry shows the natural chain unless it says otherwise. Residues count along the entry.
# UniProt Q01860: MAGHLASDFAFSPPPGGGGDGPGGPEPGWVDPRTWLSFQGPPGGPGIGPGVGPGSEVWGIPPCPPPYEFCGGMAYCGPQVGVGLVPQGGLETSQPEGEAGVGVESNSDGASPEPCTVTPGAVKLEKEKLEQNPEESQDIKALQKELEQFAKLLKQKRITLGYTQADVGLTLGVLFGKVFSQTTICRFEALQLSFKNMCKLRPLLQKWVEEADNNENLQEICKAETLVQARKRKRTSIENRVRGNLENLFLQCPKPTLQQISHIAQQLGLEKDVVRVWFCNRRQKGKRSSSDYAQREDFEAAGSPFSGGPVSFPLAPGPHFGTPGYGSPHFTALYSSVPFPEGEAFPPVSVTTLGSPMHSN
# UniProt P02769, 25-607: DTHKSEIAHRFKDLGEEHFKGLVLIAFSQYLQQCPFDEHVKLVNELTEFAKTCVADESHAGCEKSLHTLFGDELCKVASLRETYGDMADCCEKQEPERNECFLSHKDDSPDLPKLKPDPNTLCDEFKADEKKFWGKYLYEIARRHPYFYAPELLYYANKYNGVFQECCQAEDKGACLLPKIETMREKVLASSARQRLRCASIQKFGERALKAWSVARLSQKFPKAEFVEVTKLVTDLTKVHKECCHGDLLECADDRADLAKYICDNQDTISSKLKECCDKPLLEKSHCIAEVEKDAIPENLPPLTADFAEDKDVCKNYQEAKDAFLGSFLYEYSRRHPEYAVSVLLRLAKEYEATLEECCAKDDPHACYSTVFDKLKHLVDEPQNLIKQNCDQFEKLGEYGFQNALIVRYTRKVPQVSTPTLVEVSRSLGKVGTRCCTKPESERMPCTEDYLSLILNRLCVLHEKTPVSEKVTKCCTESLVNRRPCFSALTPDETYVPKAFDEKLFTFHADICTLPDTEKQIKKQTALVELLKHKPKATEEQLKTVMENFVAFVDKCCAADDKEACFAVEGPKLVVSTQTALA
# Negatives hold for the conditions tested. For some of these results: The exact form of at least one protein or probe is not confirmed. For some of these results: The comparison behind a weaker result is the experiment's own reference, which may not be listed here.
# Experiments:
# GST-OCT4 (human) = GST-OCT4 (human) (UniProt Q01860); test: EMSA; details: LI-COR Odyssey EMSA kit 1x binding buffer (composition and pH not given), 2.5 mM DTT, 0.25% Tween-20, 1 ug poly(dI-dC) in 20 ul, 20 min at RT, 4% native PAGE in 0.5x TBE, recombinant protein, protein details: GST (N-terminal, pAcG2T), label: IRDye 700
# BSA (bovine) = BSA (bovine) (UniProt P02769); test: EMSA; details: negative control; LI-COR Odyssey EMSA kit 1x binding buffer (composition and pH not given), 2.5 mM DTT, 0.25% Tween-20, 1 ug poly(dI-dC) in 20 ul, 20 min at RT; 4% native PAGE in 0.5x TBE; commercial protein; label: IRDye 700
sequence,measurement,setting,value
GCCGAATTTGCATATTTGCATGGCTG (double strand) [octamer oligonucleotide (Ig heavy chain enhancer)],binding result,"GST-OCT4 (human); OCT4 encapsulated in chitosan L-NPs (less efficient release), 30 ng per lane",binds more weakly
same,binding result,"GST-OCT4 (human); soluble OCT4 after 7 weeks at 4 C (activity lost on storage), 100 ng",no binding
same,binding result,"GST-OCT4 (human); soluble OCT4 after 7 days at RT (activity lost on storage), 250 ng",no binding
same,binding result,BSA (bovine),no binding
